Data source: PubChem BioAssay AID602196 (INSERM, 2012)

- Test: 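Genes whose knock-down alters cisplatin killing of lung cancer cells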
- System: human A549 lung cancer cells
- Reagent: siRNA pair against human genes
- Time to read-out: 48 h transfection before cisplatin; time from cisplatin to read-out not stated
- Challenge: cisplatin at a dose killing half of control-siRNA cells; exact dose and duration not given
- Detection: 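Cisplatin cell death as a shift from the 50% death seen with control siRNA; siRNAs toxic or growth-blocking alone scored 0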
- Scale: two-siRNA summed score (-2 to +2): higher = both siRNAs protect from cisplatin killing; -2 means both sensitise; mean protection from cisplatin (shift in death): higher = protection from cisplatin killing
- Hit rule: 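siRNAs harmful alone (LDH or WST-1) get 0; others get +1 for less and -1 for more cisplatin killing; genes are active when the two siRNAs give the same sign, summing to ±2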
- Meaning of the calls: active = both siRNAs shift cisplatin killing the same way; inactive = no consistent shift, or siRNA harmful alone
In all, the deposit lists about 23,000 reagents; below is a random part of them. 455 of all reagents (2%) count as active. 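Active includes both protection and sensitisation; some change values fall well beyond the stated -50 to +50 range.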 Not all columns of the deposit are shown. Not given: the amount of reagent.

gene | PubChem SID | two-siRNA summed score (-2 to +2) | mean protection from cisplatin (shift in death) (%) | Call
FBXO31 (F-box protein 31) | SID131501840 | -1 | -7 | inactive
LOC442012 | SID131510888 | 0 | 3.7 | inactive
NIPBL (NIPBL cohesin loading factor) | SID131505483 | 0 | -3.1 | inactive
ARRB1 (arrestin beta 1) | SID131520539 | 1 | 10.2 | inactive
CDRT4 (CMT1A duplicated region transcript 4) | SID131519751 | 1 | 7.2 | inactive
GJB2 (gap junction protein beta 2) | SID131503768 | 0 | -7.9 | inactive
ADCY2 (adenylate cyclase 2) | SID131522269 | 1 | 17.3 | inactive
LHB (luteinizing hormone subunit beta) | SID131501954 | -1 | -6.3 | inactive
CD160 (CD160 molecule) | SID131500455 | -1 | -28 | inactive
SNX3 (sorting nexin 3) | SID131516958 | 0 | 12.1 | inactive
LOC339793 | SID131508468 | 0 | 1.1 | inactive
TPM1 (tropomyosin 1) | SID131503948 | 0 | -7.1 | inactive
SPDYC (speedy/RINGO cell cycle regulator family member C) | SID131506261 | 0 | -1.8 | inactive
SMAD3 (SMAD family member 3) | SID131503546 | 0 | -9.3 | inactive
FGFR4 (fibroblast growth factor receptor 4) | SID131509906 | 0 | 2.6 | inactive
NT5DC2 (5'-nucleotidase domain containing 2) | SID131513758 | 0 | 7 | inactive
MSRB1P1 (methionine sulfoxide reductase B1 pseudogene 1) | SID131509753 | 0 | 2.5 | inactive
NCK1 (NCK adaptor protein 1) | SID131504685 | 0 | -4.8 | inactive
NEMP1 (nuclear envelope integral membrane protein 1) | SID131519478 | 1 | 5.8 | inactive
GPR171 (G protein-coupled receptor 171) | SID131504185 | 0 | -6.2 | inactive
FMC1 (formation of mitochondrial complex V assembly factor 1) | SID131519957 | 1 | 8.1 | inactive
CMBL (carboxymethylenebutenolidase homolog) | SID131520374 | 1 | 9.7 | inactive
PPM1H (protein phosphatase, Mg2+/Mn2+ dependent 1H) | SID131521366 | 1 | 13.1 | inactive
ARHGAP45 (Rho GTPase activating protein 45) | SID131509590 | 0 | 2.3 | inactive
EPHA7 (EPH receptor A7) | SID131519807 | 1 | 7.6 | inactive
PNKP (polynucleotide kinase 3'-phosphatase) | SID131523053 | 2 | 18 | active
TIMM29 (translocase of inner mitochondrial membrane 29) | SID131517013 | 0 | 12.2 | inactive

The list goes on (4 carried over from the part before).
gene | PubChem SID | two-siRNA summed score (-2 to +2) | mean protection from cisplatin (shift in death) (%) | Call
ARHGAP45 (Rho GTPase activating protein 45) | SID131509590 | 0 | 2.3 | inactive
EPHA7 (EPH receptor A7) | SID131519807 | 1 | 7.6 | inactive
PNKP (polynucleotide kinase 3'-phosphatase) | SID131523053 | 2 | 18 | active
TIMM29 (translocase of inner mitochondrial membrane 29) | SID131517013 | 0 | 12.2 | inactive
LOC401212 | SID131507909 | 0 | 0.4 | inactive
ADGRD2 (adhesion G protein-coupled receptor D2) | SID131517028 | 0 | 12.2 | inactive
BCS1L (BCS1 ubiquinol-cytochrome c reductase complex chaperone) | SID131515857 | 0 | 9.8 | inactive
PANX2 (pannexin 2) | SID131506349 | 0 | -1.7 | inactive
ZNF485 (zinc finger protein 485) | SID131508075 | 0 | 0.6 | inactive
VDAC2 (voltage dependent anion channel 2) | SID131503140 | 0 | -13 | inactive
CTAGE4 (CTAGE family member 4) | SID131506103 | 0 | -2 | inactive
SERPINB2 (serpin family B member 2) | SID131507114 | 0 | -0.5 | inactive
MYOZ2 (myozenin 2) | SID131509523 | 0 | 2.2 | inactive
H1-2 (H1.2 linker histone, cluster member) | SID131520722 | 1 | 10.9 | inactive
FLJ25339 | SID131500860 | -1 | -15.1 | inactive
LOC401922 | SID131516940 | 0 | 12 | inactive
FOXD4L1 (forkhead box D4 like 1) | SID131518205 | 0 | 17.2 | inactive
LOC400161 | SID131515719 | 0 | 9.6 | inactive
ZSCAN5A (zinc finger and SCAN domain containing 5A) | SID131510361 | 0 | 3.2 | inactive
LOC388134 | SID131513746 | 0 | 7 | inactive
MUC21 (mucin 21, cell surface associated) | SID131516928 | 0 | 12 | inactive
ERICH5 (glutamate rich 5) | SID131501904 | -1 | -6.7 | inactive
CIB2 (calcium and integrin binding family member 2) | SID131521879 | 1 | 15.3 | inactive
SLTM (SAFB like transcription modulator) | SID131508412 | 0 | 1 | inactive
SLTM (SAFB like transcription modulator) | SID131512367 | 0 | 5.4 | inactive
YWHAB | SID131508751 | 0 | 1.4 | inactive
LINC02076 (long independently transcribed non-coding RNA 2076) | SID131517477 | 0 | 13.5 | inactive
SLC29A1 | SID131505796 | 0 | -2.6 | inactive
SAP30L-AS1 (SAP30L and GALNT10 antisense RNA 1) | SID131513157 | 0 | 6.3 | inactive
LOC439948 | SID131521389 | 1 | 13.2 | inactive
KAAG1 (kidney associated DCDC2 antisense RNA 1) | SID131502549 | -1 | -1.1 | inactive
LOC139735 | SID131510283 | 0 | 3.1 | inactive
LOC389427 | SID131505004 | 0 | -4 | inactive
SH2D4B (SH2 domain containing 4B) | SID131508976 | 0 | 1.7 | inactive
